This data set is described as follows: peptide synthesis. To be noted: acetate, trifluoroacetate, hydrochloride, hydroiodide.

Strings that start with PEPTIDE1 are HELM notation: dots part the residues, brackets hold end groups and non-standard residues.

“[N-Boc-3-(p-nitrophenyl)-L-alanyl]-Gly-Asp(OtBu)-Val-OtBu” registered a step yield (coupling step) of 72%.
Regarding “[N-Boc-3-(p-aminophenyl)-L-alanyl]-Gly-Asp(OtBu)-Val-OtBu”, the step yield (late stage modification step) was determined as 79%.
For “[3-(p-guanidinophenyl)-L-alanyl]-Gly-Asp-Val-OH pentahydrochloride”, the step yield (late stage modification step) stood at 53%.
The same measure, in the same setting: the result for “[N-Boc-3-(p-guanidinophenyl)-L-alanyl]-Gly-Asp(OtBu)-Val-OtBu” reads 54%.
As to PEPTIDE1{[L-Phe(4-Am)].G.D.V}$$$$V2.0, under “late stage modification step”, the step yield is reported as 75%.

These data come from patent publication US5663297A (Hoffmann-La Roche Inc., priority 1989, dated 1997).
